Experimental data taken from PubChem BioAssay AID312 (DTP/NCI, 2004).
The list does not hold the whole screen: it gathers some chemical classes. Other doses and runs of a compound may be missing. T/C: endpoint of the treated group in % of that of the vehicle group. Where survival is the endpoint, this PubChem deposit counts one and a half times the control or more as active, and values a quarter to a half above the control carry no call in these data; other NCI protocols may use other cut-offs. Some entries show no survivor count and are marked so; the dose need not have been tolerated. Schedules are NCI's codes, read here as Q, the interval in days (D) or hours (H), X, the number of doses. Some doses were run more than once; the results are listed from low to high.

Test system: BDF1 mice, C1498 leukemia ip, median survival T/C
Experiment: NCI In Vivo Anticancer Drug Screen. Data for tumor model C1498 Myeloid Leukemia (intraperitoneal) in B6D2F1 (BDF1) mice
Settings: T/C endpoint: median survival time, schedule: Q01DX010 (ip), vehicle: saline, higher T/C = longer survival
Procedure: The antitumor activity of compounds was measured in mice bearing transplantable tumors. Survival or tumor size were measured and the results are expressed as the measurement made in the treated group (T) divided by the measurement made in the vehicle treated control group (C). The tumor model used in this assay is C1498 Myeloid Leukemia (intraperitoneal) in B6D2F1 (BDF1) mice

For `CN(CCCl)CCCl`, the T/C (dose: 0.13 mg/kg/injection) was 145 [survivor count not shown] and 161 % of control [survivor count not shown], the T/C (dose: 0.25 mg/kg/injection) was 95 [survivor count not shown] and 109 % of control [survivor count not shown] and the T/C (dose: 0.5 mg/kg/injection) was 95 [survivor count not shown] and 100 % of control [survivor count not shown]. The T/C (dose: 1.0 mg/kg/injection) was 95 [survivor count not shown] and 104 % of control [survivor count not shown].
